Values of other authors as cited in article PMC6719874 (PLoS ONE, 2019).

Tested on: 19 cancer cell lines
Details: read-out: average IC50; proliferating cells, 19 cancer cell lines ref 75-77

CCC(CO)Nc1nc(NCc2ccccc2)c2ncn(C(C)C)c2n1 (stereo not shown) [R-roscovitine, 2-(1-ethyl-2-hydroxyethylamino)-6-benzylamino-9-isopropylpurine]
IC50: ~16 µM
